{"sequences": {"note": "Sequences of proteins named here, by UniProt entry; tags and fusion partners are left off. Residues count along the entry.", "UniProt Q15363, residues 21-201": "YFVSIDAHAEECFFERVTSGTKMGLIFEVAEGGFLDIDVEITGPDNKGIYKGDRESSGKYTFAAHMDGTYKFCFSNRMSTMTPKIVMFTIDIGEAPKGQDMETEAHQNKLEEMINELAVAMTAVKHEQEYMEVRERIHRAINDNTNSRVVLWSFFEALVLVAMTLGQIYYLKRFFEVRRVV", "UniProt P31751": "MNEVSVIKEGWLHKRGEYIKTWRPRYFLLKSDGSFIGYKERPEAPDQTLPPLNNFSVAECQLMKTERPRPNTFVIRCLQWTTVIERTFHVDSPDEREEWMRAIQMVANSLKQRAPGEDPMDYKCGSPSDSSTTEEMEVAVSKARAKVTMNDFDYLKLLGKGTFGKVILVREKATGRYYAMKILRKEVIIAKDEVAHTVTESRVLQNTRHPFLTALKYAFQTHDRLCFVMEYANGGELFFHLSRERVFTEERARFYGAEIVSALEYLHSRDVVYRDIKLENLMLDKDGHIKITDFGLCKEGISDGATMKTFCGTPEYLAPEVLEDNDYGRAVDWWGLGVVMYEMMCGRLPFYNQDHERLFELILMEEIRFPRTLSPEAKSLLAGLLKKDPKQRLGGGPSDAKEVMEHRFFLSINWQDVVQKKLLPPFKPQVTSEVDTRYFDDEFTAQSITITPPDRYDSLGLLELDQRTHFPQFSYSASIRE"}, "source": "paper PMC5706863", "target": "HA-TMED2 (UniProt Q15363)", "experiment": "co-IP; cells co-transfected with Flag-AKT2 and HA-TMED2, harvested 24 h later; anti-HA immunoprecipitation, anti-Flag Western blot; single transfections as controls", "note": "No constants are given. Whether binding was seen depends on the method and setting. Binding seen in cells or lysates may run through a third protein. Some results given as binding are weak or reduced against the parent protein; the word gives no strength.", "data": [{"substance": "Flag-AKT2 (from UniProt P31751 1-481)", "values": [{"measurement": "binding", "result": "binds"}]}]}
